# The list shows a part of the results.
# Amino acid sequences for entries named in this document (tags omitted). A change or cut given only in a name is not applied to a line headed by its entry.
# UniProt Q69YI7: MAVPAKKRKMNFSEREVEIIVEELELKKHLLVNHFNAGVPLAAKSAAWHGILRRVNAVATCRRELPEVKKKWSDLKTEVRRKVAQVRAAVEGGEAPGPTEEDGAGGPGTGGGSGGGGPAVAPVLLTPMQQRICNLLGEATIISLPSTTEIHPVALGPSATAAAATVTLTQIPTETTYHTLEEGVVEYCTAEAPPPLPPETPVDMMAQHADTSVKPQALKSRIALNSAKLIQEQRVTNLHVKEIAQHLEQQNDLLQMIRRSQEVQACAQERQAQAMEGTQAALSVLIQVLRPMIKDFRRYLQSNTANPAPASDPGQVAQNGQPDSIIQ
# UniProt Q5SYE7: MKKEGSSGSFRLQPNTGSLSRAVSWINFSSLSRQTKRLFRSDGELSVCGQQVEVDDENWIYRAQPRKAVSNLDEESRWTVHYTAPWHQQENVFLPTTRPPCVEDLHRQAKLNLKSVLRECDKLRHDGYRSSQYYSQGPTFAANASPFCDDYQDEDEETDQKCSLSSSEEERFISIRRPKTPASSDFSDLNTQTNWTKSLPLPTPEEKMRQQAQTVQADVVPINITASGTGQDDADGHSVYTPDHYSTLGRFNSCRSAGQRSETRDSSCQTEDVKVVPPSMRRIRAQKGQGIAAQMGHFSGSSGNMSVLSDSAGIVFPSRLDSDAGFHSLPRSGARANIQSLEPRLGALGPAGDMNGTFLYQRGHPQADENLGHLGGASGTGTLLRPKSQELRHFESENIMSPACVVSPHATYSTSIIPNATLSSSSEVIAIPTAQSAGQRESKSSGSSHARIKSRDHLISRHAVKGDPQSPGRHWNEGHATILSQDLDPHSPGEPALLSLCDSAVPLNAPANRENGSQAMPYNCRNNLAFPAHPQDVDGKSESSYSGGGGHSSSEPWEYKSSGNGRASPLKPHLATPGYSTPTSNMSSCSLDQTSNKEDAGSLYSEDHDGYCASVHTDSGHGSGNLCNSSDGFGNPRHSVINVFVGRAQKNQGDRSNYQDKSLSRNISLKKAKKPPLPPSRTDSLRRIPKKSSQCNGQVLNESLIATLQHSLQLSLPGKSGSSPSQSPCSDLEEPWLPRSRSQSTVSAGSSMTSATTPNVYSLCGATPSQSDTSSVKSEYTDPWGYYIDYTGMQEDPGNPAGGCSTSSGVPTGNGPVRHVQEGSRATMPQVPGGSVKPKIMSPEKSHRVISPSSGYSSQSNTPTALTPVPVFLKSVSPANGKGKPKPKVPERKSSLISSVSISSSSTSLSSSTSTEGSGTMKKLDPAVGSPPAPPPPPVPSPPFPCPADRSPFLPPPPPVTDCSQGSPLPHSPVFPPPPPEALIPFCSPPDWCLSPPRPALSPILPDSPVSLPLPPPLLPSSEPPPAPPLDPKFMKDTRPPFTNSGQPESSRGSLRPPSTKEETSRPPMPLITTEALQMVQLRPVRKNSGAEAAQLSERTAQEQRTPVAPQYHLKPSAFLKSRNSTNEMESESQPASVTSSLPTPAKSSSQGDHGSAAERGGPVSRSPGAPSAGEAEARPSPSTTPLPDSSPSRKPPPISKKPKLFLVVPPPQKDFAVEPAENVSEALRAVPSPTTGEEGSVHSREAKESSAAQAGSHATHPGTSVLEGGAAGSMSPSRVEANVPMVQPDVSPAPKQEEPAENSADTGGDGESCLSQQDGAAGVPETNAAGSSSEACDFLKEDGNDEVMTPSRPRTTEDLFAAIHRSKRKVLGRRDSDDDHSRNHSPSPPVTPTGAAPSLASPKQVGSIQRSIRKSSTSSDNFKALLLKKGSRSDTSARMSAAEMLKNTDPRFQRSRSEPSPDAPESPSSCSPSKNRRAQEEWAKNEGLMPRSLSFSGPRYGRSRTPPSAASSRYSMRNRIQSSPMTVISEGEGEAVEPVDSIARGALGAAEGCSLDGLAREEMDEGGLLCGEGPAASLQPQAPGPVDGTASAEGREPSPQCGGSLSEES
# UniProt P17568, whole entry: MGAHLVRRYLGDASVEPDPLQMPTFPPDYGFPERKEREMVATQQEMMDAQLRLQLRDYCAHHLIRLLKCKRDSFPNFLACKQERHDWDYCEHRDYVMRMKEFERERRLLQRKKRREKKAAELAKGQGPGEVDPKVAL
# UniProt Q9BUK6: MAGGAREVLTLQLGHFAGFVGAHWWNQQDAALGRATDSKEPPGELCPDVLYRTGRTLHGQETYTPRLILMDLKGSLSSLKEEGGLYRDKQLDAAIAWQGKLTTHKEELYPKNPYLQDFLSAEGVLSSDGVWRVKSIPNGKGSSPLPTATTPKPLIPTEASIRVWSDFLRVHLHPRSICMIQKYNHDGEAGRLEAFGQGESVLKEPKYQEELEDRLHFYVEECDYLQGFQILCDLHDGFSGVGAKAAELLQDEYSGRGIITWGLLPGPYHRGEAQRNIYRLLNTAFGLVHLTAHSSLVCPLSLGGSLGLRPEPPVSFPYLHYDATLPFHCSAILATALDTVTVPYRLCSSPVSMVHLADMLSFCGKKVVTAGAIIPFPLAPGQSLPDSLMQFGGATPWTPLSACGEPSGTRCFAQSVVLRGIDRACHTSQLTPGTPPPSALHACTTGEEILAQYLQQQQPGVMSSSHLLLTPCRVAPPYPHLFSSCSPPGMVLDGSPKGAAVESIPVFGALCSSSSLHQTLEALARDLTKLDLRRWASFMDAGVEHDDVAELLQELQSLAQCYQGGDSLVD
# UniProt Q04721: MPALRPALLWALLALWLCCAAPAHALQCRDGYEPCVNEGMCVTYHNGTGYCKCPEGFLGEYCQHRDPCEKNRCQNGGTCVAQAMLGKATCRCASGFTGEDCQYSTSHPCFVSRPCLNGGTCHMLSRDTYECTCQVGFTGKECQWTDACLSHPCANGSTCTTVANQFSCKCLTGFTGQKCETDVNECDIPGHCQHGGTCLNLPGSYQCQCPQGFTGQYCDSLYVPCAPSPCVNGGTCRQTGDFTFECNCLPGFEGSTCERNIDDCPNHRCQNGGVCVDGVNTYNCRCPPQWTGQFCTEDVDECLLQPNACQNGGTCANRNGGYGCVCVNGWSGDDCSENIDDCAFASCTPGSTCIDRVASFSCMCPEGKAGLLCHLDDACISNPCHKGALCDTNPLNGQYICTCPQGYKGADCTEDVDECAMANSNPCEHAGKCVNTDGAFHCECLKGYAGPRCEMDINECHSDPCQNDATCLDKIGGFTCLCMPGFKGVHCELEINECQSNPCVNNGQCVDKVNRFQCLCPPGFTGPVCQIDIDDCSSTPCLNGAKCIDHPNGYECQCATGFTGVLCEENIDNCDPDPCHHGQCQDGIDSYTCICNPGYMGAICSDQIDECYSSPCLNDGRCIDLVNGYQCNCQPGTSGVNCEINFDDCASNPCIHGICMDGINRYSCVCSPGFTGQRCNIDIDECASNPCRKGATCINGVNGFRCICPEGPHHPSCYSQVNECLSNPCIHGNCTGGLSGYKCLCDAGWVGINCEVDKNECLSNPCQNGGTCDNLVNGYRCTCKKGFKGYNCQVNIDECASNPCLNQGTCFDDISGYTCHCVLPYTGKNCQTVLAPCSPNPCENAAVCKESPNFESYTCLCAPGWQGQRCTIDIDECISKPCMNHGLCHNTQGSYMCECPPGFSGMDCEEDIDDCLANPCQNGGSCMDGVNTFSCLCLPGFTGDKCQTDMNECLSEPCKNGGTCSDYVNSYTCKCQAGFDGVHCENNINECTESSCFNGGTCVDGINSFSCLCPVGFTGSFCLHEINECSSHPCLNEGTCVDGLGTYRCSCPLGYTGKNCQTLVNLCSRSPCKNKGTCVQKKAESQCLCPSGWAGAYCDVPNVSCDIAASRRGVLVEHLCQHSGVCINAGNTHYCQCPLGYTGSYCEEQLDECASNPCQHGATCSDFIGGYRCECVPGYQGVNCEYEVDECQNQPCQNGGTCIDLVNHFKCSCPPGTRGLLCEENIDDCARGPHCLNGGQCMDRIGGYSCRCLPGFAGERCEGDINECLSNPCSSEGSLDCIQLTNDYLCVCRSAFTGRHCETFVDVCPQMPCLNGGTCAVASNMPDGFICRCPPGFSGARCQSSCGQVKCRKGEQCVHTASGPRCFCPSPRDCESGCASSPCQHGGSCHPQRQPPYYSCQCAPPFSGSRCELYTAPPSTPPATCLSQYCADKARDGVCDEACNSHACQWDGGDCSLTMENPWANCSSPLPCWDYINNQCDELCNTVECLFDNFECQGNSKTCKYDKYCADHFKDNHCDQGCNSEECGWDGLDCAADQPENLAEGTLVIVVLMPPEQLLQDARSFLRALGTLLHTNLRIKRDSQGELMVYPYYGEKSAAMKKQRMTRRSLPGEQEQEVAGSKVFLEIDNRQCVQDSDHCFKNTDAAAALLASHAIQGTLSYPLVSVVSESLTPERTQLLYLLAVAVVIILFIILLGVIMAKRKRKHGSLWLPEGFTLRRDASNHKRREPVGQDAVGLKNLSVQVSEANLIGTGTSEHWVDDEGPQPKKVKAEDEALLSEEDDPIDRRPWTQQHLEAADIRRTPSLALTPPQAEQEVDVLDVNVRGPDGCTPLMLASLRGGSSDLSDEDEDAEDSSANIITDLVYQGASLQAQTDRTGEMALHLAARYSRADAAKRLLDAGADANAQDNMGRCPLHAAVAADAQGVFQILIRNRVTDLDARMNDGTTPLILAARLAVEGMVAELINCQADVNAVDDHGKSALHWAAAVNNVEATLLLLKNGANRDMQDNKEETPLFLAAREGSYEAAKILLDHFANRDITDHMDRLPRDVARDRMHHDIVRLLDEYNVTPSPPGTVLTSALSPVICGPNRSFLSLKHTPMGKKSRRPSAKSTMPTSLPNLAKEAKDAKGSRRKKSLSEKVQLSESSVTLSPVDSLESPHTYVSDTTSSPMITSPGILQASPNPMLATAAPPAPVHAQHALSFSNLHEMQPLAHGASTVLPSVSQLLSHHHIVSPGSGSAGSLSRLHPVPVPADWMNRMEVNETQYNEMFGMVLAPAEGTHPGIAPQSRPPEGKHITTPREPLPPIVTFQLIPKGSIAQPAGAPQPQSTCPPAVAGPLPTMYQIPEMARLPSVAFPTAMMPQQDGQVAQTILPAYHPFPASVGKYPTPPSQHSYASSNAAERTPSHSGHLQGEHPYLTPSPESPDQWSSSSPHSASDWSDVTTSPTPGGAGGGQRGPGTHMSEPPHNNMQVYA
# UniProt P52701: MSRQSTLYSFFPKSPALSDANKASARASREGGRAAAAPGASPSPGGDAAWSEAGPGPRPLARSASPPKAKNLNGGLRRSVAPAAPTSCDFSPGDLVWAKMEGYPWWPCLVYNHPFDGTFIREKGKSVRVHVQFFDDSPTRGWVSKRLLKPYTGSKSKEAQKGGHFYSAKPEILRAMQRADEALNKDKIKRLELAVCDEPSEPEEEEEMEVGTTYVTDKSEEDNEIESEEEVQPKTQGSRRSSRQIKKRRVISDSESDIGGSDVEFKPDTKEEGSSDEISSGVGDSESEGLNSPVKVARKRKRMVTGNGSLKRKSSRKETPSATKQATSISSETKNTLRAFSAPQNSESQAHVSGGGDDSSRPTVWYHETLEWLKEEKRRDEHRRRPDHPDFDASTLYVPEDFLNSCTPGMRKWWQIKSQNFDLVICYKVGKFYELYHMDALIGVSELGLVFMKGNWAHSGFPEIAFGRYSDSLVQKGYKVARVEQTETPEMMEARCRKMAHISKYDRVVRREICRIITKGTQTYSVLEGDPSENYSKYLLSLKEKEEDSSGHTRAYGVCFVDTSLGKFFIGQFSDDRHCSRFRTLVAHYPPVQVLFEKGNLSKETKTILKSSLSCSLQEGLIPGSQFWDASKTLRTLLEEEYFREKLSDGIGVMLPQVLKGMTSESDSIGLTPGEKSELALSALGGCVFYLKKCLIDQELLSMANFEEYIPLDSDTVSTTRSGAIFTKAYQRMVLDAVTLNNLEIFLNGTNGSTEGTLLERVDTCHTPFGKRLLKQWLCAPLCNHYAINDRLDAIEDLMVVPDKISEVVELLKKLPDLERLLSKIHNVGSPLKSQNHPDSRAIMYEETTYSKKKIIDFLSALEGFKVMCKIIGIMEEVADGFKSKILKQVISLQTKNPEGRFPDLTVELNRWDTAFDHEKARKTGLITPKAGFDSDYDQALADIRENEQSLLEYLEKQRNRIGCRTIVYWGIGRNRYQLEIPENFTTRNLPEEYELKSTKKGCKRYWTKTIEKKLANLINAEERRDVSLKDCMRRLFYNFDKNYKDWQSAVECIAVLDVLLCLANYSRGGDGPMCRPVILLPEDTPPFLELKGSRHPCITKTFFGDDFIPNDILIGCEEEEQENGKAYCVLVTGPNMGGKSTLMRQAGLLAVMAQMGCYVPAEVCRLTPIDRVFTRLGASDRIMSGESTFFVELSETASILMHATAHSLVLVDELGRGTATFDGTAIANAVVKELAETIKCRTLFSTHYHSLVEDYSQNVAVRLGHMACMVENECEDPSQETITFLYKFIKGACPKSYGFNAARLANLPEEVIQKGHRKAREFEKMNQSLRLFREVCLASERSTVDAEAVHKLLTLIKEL
# Compound: COc1ccc(Cn2ccc3ccc(C(=O)NO)cc32)cc1
# Test: dose-dependent thermal stabilisation call (2D-TPP, DLPTP, 10% FDR) (binary (1 = stabilised)); higher = stabilised by the compound
# Conditions: system: HL-60 intact cells; concentration range 0.04-10 µM
row,Target,dose-dependent thermal stabilisation call
1,NCL (UniProt P19338),inactive: 0
2,NARFL (UniProt Q9H6Q4),inactive: 0
3,NDUFA13 (UniProt Q9P0J0),inactive: 0
4,NPLOC4 (UniProt Q8TAT6),inactive: 0
5,NIT1 (UniProt Q86X76),inactive: 0
6,NHEDC2 (UniProt Q86UD5),inactive: 0
7,NCOA4 (UniProt Q13772),inactive: 0
8,NDUFA8 (UniProt P51970),inactive: 0
9,MTMR14 (UniProt Q8NCE2),inactive: 0
10,NAIF1 (UniProt Q69YI7),inactive: 0
11,MTPAP (UniProt Q9NVV4),inactive: 0
12,MRPS6 (UniProt P82932),inactive: 0
13,NHSL1 (UniProt Q5SYE7),inactive: 0
14,NDUFB7 (UniProt P17568),inactive: 0
15,NFIC (UniProt P08651),inactive: 0
16,MSTO1 (UniProt Q9BUK6),inactive: 0
17,NOTCH2 (UniProt Q04721),inactive: 0
18,NIP30 (UniProt Q9GZU8),inactive: 0
19,NDUFB5 (UniProt O43674),inactive: 0
20,MTHFSD (UniProt Q2M296),inactive: 0
21,NAGK (UniProt Q9UJ70),inactive: 0
22,MSH6 (UniProt P52701),inactive: 0
23,MUT (UniProt P22033),inactive: 0
24,NEU1 (UniProt Q99519),inactive: 0
25,MRPS7 (UniProt Q9Y2R9),inactive: 0
26,NF2 (UniProt P35240),inactive: 0
27,N4BP1 (UniProt O75113),inactive: 0

# Some of the entries so far, bar-delimited.
row | Target | dose-dependent thermal stabilisation call
9 | MTMR14 (UniProt Q8NCE2) | inactive: 0
10 | NAIF1 (UniProt Q69YI7) | inactive: 0
11 | MTPAP (UniProt Q9NVV4) | inactive: 0
12 | MRPS6 (UniProt P82932) | inactive: 0
13 | NHSL1 (UniProt Q5SYE7) | inactive: 0
14 | NDUFB7 (UniProt P17568) | inactive: 0
15 | NFIC (UniProt P08651) | inactive: 0

# — the supplement of paper PMC7666118
